Test results from the supplement of paper PMC10849652.
The list shows a part of the results.

Amino acid sequences for entries named in this document (tags omitted). A change or cut given only in a name is not applied to a line headed by its entry.
UniProt Q15631: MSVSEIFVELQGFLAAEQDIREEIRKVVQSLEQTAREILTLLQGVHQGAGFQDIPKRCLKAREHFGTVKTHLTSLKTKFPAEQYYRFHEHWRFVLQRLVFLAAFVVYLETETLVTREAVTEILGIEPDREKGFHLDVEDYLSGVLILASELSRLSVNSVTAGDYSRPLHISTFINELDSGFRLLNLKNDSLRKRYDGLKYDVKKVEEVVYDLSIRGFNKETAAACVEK
UniProt Q15654: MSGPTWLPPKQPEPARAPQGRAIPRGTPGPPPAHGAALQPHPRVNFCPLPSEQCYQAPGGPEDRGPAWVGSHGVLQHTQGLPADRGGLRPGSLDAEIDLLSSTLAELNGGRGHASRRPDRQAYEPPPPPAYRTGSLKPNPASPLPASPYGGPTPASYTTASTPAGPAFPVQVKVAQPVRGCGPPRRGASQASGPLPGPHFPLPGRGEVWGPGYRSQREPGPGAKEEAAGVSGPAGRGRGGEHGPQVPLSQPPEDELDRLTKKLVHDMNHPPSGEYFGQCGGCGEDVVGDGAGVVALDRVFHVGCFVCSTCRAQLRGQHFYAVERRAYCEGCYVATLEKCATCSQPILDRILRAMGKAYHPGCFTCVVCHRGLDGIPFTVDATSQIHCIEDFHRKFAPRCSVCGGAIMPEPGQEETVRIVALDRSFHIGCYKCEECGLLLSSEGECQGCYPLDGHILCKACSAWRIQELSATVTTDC
UniProt O43715: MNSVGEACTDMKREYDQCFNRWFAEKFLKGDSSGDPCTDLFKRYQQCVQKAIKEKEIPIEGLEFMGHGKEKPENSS
UniProt Q9H2D6: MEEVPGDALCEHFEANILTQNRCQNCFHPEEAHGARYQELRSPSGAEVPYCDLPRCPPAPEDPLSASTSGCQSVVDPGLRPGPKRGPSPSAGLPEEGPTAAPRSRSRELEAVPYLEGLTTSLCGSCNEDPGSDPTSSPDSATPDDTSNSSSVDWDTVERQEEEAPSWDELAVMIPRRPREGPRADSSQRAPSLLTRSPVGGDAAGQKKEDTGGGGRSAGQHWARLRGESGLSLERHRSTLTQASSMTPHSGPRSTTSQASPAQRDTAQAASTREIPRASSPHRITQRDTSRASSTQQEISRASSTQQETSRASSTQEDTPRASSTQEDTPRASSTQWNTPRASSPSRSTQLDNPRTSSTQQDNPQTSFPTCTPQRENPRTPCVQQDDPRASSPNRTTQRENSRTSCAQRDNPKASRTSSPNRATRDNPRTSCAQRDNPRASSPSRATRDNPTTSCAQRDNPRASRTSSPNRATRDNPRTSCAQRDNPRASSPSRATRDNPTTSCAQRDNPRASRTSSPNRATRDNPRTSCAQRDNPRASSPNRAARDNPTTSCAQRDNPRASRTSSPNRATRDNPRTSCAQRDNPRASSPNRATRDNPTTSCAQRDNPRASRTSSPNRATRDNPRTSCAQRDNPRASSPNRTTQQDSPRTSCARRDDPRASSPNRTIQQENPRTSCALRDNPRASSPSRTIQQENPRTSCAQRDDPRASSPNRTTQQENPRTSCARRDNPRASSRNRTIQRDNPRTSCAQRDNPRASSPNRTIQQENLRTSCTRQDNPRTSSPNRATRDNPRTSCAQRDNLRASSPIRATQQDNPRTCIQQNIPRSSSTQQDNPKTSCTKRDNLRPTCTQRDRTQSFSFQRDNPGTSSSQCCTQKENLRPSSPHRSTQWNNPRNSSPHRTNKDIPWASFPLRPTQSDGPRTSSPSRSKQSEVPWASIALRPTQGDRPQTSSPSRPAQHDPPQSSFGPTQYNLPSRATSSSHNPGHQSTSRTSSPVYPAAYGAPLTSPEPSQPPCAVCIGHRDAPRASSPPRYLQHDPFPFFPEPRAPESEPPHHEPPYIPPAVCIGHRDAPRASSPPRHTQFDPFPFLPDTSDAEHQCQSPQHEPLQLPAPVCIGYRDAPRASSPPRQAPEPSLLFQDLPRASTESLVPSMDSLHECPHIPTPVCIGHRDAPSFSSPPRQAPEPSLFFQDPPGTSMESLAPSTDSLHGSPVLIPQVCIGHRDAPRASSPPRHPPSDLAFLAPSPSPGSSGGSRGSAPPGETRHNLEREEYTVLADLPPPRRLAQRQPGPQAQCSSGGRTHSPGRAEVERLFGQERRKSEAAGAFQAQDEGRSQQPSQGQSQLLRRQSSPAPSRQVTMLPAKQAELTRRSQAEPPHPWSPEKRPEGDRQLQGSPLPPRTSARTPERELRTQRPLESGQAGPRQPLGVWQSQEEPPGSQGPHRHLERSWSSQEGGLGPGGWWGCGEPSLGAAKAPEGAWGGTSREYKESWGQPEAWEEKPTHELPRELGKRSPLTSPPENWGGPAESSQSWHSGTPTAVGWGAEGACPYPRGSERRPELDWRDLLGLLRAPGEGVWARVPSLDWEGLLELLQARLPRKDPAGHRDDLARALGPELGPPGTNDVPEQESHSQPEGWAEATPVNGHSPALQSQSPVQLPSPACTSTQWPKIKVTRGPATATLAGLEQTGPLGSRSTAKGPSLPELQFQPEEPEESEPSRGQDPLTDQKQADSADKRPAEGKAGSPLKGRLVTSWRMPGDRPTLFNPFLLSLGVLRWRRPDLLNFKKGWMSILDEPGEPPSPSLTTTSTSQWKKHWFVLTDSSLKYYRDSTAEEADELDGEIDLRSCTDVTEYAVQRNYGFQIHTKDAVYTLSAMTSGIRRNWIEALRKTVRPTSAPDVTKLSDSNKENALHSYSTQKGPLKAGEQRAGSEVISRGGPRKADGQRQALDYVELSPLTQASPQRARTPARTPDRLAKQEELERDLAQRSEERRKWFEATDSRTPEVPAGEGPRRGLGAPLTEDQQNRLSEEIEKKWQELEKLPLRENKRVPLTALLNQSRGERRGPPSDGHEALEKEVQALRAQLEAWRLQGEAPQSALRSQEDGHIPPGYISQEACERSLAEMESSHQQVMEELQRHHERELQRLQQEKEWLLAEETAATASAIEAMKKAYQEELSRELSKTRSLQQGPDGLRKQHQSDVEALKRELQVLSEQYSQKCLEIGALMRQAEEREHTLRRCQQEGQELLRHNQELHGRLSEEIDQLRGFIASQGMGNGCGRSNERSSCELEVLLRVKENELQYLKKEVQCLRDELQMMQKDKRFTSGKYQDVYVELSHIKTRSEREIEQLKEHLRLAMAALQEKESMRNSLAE
UniProt Q15642: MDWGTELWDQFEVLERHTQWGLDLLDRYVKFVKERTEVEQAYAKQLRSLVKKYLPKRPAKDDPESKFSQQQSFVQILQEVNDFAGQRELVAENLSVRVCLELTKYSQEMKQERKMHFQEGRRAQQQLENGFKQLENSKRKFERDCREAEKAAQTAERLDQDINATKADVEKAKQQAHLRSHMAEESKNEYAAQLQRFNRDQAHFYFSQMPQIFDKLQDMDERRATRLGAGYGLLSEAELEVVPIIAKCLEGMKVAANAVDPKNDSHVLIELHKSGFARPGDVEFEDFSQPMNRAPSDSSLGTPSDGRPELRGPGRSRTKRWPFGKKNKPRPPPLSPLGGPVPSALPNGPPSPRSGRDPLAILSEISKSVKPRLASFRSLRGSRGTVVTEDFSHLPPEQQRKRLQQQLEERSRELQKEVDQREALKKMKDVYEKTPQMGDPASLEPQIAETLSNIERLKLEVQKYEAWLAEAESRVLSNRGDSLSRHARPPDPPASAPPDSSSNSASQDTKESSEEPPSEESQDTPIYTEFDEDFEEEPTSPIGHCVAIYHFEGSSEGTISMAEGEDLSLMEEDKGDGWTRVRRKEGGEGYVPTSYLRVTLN
UniProt Q629K1: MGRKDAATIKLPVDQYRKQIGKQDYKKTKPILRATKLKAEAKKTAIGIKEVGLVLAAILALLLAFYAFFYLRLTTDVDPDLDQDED
UniProt Q5VTQ0: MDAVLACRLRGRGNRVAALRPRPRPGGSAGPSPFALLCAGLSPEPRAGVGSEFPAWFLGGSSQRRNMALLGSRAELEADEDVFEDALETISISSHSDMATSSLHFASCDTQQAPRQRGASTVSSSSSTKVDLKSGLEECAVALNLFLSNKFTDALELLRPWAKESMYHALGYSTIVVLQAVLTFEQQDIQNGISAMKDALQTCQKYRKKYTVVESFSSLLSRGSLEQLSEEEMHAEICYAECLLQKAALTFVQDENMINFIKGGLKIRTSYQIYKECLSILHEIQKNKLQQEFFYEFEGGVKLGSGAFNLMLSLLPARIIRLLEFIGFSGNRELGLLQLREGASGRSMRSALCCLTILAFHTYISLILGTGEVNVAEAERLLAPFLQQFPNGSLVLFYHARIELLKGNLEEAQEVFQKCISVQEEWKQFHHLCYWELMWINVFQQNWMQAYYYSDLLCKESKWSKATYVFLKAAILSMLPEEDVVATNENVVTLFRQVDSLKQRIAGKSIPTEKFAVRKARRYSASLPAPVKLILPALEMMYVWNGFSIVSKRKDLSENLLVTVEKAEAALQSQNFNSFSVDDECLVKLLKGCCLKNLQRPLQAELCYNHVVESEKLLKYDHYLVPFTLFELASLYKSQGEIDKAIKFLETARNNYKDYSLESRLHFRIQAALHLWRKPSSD
UniProt Q86TN4: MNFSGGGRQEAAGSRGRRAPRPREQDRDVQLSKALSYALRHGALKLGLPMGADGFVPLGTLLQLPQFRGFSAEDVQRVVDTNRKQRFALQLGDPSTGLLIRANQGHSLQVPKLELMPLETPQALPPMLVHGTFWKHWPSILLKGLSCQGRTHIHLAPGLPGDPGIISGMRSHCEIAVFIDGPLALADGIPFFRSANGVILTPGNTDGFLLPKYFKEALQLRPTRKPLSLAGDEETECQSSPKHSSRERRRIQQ
UniProt Q7Z4L5: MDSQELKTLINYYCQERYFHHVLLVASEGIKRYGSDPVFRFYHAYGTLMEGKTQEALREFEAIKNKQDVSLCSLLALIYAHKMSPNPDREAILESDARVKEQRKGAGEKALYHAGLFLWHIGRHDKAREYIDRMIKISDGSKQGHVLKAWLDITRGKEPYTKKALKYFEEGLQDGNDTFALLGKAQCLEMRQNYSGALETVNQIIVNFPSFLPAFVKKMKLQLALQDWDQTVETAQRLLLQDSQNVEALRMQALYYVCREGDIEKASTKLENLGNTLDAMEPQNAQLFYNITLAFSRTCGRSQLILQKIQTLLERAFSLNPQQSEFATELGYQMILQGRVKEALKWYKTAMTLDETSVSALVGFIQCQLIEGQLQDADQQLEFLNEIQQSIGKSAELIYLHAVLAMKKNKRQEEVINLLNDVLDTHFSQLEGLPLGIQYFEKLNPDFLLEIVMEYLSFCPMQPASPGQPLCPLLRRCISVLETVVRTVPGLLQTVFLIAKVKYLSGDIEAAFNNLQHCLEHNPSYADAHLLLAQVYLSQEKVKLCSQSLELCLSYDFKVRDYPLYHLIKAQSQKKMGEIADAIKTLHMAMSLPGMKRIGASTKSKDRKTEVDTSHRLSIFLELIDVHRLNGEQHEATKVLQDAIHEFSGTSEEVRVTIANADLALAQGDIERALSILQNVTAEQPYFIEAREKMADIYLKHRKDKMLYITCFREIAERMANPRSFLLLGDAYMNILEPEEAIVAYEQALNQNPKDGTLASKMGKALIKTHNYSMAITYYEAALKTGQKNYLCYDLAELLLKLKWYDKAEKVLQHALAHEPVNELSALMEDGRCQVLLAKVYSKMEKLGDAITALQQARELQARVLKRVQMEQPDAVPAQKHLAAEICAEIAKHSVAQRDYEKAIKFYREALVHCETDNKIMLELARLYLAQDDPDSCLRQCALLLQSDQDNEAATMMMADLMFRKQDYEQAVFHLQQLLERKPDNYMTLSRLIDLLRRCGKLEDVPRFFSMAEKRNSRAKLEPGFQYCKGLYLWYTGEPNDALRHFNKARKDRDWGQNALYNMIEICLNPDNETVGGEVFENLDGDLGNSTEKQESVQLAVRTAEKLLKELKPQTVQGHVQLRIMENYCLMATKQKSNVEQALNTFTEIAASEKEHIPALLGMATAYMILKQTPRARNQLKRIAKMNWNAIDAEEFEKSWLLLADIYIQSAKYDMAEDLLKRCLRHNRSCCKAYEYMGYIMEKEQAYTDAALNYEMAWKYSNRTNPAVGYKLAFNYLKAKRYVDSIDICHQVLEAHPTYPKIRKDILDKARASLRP
UniProt Q5T7W7: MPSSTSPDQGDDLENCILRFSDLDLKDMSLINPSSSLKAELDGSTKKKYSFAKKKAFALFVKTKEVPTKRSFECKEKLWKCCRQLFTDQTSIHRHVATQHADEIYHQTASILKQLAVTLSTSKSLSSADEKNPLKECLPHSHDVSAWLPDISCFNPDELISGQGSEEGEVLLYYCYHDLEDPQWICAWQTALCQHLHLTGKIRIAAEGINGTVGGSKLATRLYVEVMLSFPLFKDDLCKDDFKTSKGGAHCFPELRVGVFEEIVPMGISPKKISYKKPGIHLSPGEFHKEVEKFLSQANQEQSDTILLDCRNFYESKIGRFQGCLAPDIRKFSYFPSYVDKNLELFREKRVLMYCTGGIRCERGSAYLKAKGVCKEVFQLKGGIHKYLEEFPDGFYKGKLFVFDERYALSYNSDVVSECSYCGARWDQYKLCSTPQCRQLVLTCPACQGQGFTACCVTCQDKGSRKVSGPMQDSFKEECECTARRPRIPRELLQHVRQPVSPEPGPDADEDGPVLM

Assays:
Test in all cases: log2 fold change, soluble protein after heating vs DMSO (PISA); higher = thermal stabilisation; K562 lysate, 10 uM; active = over 0.2 and 3.5 SD of the protein, either way, in both replicates (recomputed)
ibrutinib = compound: C=CC(=O)N1CCC[C@@H](n2nc(-c3ccc(Oc4ccccc4)cc3)c3c(N)ncnc32)C1 [ibrutinib]
Summary of the method: (§1)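 Values give the log-two fold change in thermal stability against solvent controls, from duplicates. Crude K562 extract at 1 mg/mL protein, made by dounce homogenisation in PBS pH 7.4 with 1 mM MgCl2, was treated with 10 μM compound for 30 min. After 3 min heating across 48°C-58°C, aliquots were pooled, adjusted to 0.5% NP-40 at 4°C and centrifuged at 21,000xg for 90 min. The supernatant was measured by TMTpro 16plex LC-MS/MS with channel sums equalised.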

[1] = compound: CC(=O)c1cnc2ccc(-c3cc(Cl)c(O)c(Cl)c3)nc2c1N[C@H]1CC[C@H](CN(C)C)CC1
Summary of the method: as §1

ralimetinib = compound: CC(C)(C)Cn1c(N)nc2ccc(-c3[nH]c(C(C)(C)C)nc3-c3ccc(F)cc3)nc21 [ralimetinib]
Summary of the method: as §1

[2] = compound: CC(C)(O)CC(=O)NCCn1ccc2ncnc(Nc3ccc(Oc4cccc(C(F)(F)F)c4)c(Cl)c3)c21
Summary of the method: as §1

[3] = compound: CC(C)C1=C2N=C(C=C(N2N=C1)NCC3=CC=CC=C3)NCCCCCCN
Summary of the method: as §1

[4] = compound: CC1=C(C(CC(=O)N1)C2=CC=C(C=C2)C(F)(F)F)C(=O)NC3=C(C=C4C(=C3)C=NN4)F
Summary of the method: as §1

[5] = compound: CC1=C(C2=C(C=C1)C(=O)C3=CC=CC=C3N2CCCN)C
Summary of the method: as §1

[6] = compound: CC1=C(C=C(C=C1)NC(=O)C2=CC(=CC=C2)C(C)(C)C#N)NC3=CC4=C(C=C3)N=CN(C4=O)C
Summary of the method: as §1

[7] = compound: CC1=C(C=C(C=C1)NC(=O)C2=CC(=CC=C2)N(C)C)NC(=O)C3=CC=C(C=C3)O
Summary of the method: as §1

[8] = compound: CC1=CC=C(C=C1)SC2=C3C=C(SC3=CN=C2)C(=O)N
Summary of the method: as §1

vemurafenib = compound: CCCS(=O)(=O)Nc1ccc(F)c(C(=O)c2c[nH]c3ncc(-c4ccc(Cl)cc4)cc23)c1F [vemurafenib]
Summary of the method: as §1

[9] = compound: CCCS(=O)(=O)Nc1ccc(F)c(C(=O)c2c[nH]c3ncc(Cl)cc23)c1F
Summary of the method: as §1

barasertib = compound: CCN(CCCOc1ccc2c(Nc3cc(CC(=O)Nc4cccc(F)c4)[nH]n3)ncnc2c1)CCOP(=O)(O)O [barasertib]
Summary of the method: as §1

[10] = compound: CC[C@@H]1C(=O)N(C)c2cnc(Nc3ccc(C(=O)NC4CCN(C)CC4)cc3OC)nc2N1C1CCCC1
Summary of the method: as §1

volasertib = compound: CC[C@@H]1C(=O)N(C)c2cnc(Nc3ccc(C(=O)N[C@H]4CC[C@H](N5CCN(CC6CC6)CC5)CC4)cc3OC)nc2N1C(C)C [volasertib]
Summary of the method: as §1

[11] = compound: CCn1c(C(=O)N(C2CC2)C2CC2)cc2c3c(ncn3C)c(Nc3cc(C)n(C)n3)nc21
Summary of the method: as §1

[12] = compound: CCn1cc(-c2ccnc3[nH]c(-c4cccc(CN(C)C)c4)cc23)c(-c2ccc(NC(=O)N(C)C)cc2)n1
Summary of the method: as §1

[13] = compound: CN1CCC(CNc2ccc3ncc(-c4cccc(OC(F)(F)F)c4)n3n2)CC1
Summary of the method: as §1

saracatinib = compound: CN1CCN(CCOc2cc(OC3CCOCC3)c3c(Nc4c(Cl)ccc5c4OCO5)ncnc3c2)CC1 [saracatinib]
Summary of the method: as §1

sotrastaurin = compound: CN1CCN(c2nc(C3=C(c4c[nH]c5ccccc45)C(=O)NC3=O)c3ccccc3n2)CC1 [sotrastaurin]
Summary of the method: as §1

Measured: log2 fold change

TSN (UniProt Q15631)
inactive: ibrutinib 0.019 | [1] -0.002 | ralimetinib -0.022 | [2] -0.008 | [3] 0.009 | [4] -0.025 | [5] -0.034 | [6] 0.043 | [7] -0.004 | [8] -0.003 | vemurafenib 0.019 | [9] 0.005 | barasertib 0.012 | [10] 0.029 | volasertib 0.039 | [11] -0.01 | [12] -0.088 | [13] 0.082 | saracatinib 0.005 | sotrastaurin -0.02

TTC37 (UniProt Q6PGP7)
inactive: ibrutinib 0.012 | [1] 0.047 | ralimetinib -0.024 | [2] 0.012 | [3] -0.012 | [4] -0.019 | [5] -0.188 | [6] 0.154 | [7] -0.043 | [8] -0.15 | vemurafenib 0.053 | [9] -0.068 | barasertib 0.018 | volasertib 0.011 | [11] 0.045 | saracatinib 0.013 | sotrastaurin -0.019

TRIP6 (UniProt Q15654)
inactive: ibrutinib 0.001 | [1] 0.02 | ralimetinib 0.021 | [2] -0.006 | [3] -0.022 | [4] -0.033 | [5] -0.01 | [6] 0.066 | [7] 0 | [8] -0.023 | vemurafenib -0.009 | [9] 0.021 | barasertib -0.05 | [10] 0.027 | volasertib -0.034 | [11] -0.021 | [12] -0.027 | [13] 0.021 | saracatinib 0.019 | sotrastaurin -0.034

TRIAP1 (UniProt O43715)
inactive: [1] -0.113 | ralimetinib 0 | [2] -0.008 | [3] -0.028 | [4] -0.102 | [5] 0.011 | [6] 0.082 | [7] 0.031 | [8] 0.016 | vemurafenib -0.016 | [9] -0.012 | [10] 0.019 | volasertib 0.106 | [11] -0.045 | [12] 0.087 | [13] -0.073 | saracatinib 0.041 | sotrastaurin 0.062

TRMT2B (UniProt Q96GJ1)
inactive: ibrutinib -0.001 | [1] -0.28 | ralimetinib 0.062 | [2] 0.003 | [3] -0.033 | [4] 0.014 | [5] -0.037 | [6] -0.054 | [7] -0.004 | [8] -0.108 | [9] 0.089 | barasertib 0.095 | volasertib -0.038 | [11] 0.001 | [12] 0.013 | [13] -0.153 | saracatinib 0.06 | sotrastaurin -0.04

TRIOBP (UniProt Q9H2D6)
inactive: ibrutinib -0.013 | [1] -0.162 | ralimetinib 0.034 | [2] 0.017 | [3] 0.011 | [5] 0.095 | [6] 0.023 | [7] -0.034 | [8] 0.062 | vemurafenib 0.049 | [9] 0.043 | barasertib 0.024 | [10] -0.014 | volasertib -0.059 | [11] 0.003 | [12] -0.027 | [13] -0.031 | saracatinib 0.063 | sotrastaurin 0.045

TRIP10 (UniProt Q15642)
inactive: ibrutinib 0.031 | [1] -0.018 | ralimetinib -0.02 | [2] 0.025 | [3] -0.019 | [4] -0.024 | [5] -0.025 | [6] 0.014 | [7] 0.011 | [8] 0 | vemurafenib 0.112 | [9] -0.012 | barasertib 0.007 | [10] -0.026 | volasertib -0.017 | [11] 0.002 | [12] -0.096 | [13] 0.035 | saracatinib 0.011 | sotrastaurin -0.001

TSPYL1 (UniProt Q9H0U9)
inactive: ibrutinib -0.084 | [1] -0.066 | ralimetinib -0.022 | [2] -0.042 | [3] 0.035 | [4] 0.029 | [5] -0.085 | [6] -0.023 | [7] -0.022 | [8] 0.085 | [9] 0.047 | barasertib 0.073 | volasertib 0.014 | [11] -0.043 | [12] -0.103 | [13] 0.022 | saracatinib -0.012 | sotrastaurin 0.152

TTC13 (UniProt Q8NBP0)
inactive: ibrutinib 0.06 | [1] 0.099 | ralimetinib 0.132 | [2] -0.212 | [6] 0.029 | [7] -0.057 | [8] -0.209 | vemurafenib 0.006 | [9] 0.141 | barasertib 0.157 | volasertib -0.181 | [11] -0.173 | sotrastaurin 0.019

TRIQK (UniProt Q629K1)
inactive: ibrutinib -0.047 | [1] -0.002 | ralimetinib -0.016 | [2] -0.023 | [3] 0.097 | [5] -0.082 | [6] 0.07 | [7] 0.059 | [8] 0.022 | [9] -0.018 | barasertib 0.016 | [10] 0.153 | volasertib 0.018 | [11] 0.045 | saracatinib 0.123 | sotrastaurin -0.049

TSTA3 (UniProt Q13630)
inactive: ibrutinib 0.02 | [1] 0 | ralimetinib -0.02 | [2] -0.03 | [3] -0.007 | [4] -0.04 | [5] -0.001 | [6] -0.004 | [7] -0.017 | [8] -0.005 | vemurafenib 0.034 | [9] -0.006 | barasertib -0.02 | [10] -0.077 | volasertib -0.005 | [11] -0.028 | [12] -0.02 | [13] 0.027 | saracatinib 0.025 | sotrastaurin -0.013

TTC39B (UniProt Q5VTQ0)
inactive: ibrutinib 0.092 | [1] 0.095 | ralimetinib 0.066 | [2] -0.046 | [3] 0.039 | [5] -0.038 | [7] 0.041 | [8] 0.022 | vemurafenib 0.114 | [9] 0.027 | barasertib 0.271 | volasertib -0.019 | [11] 0.029 | saracatinib -0.024

TRIM58 (UniProt Q8NG06)
inactive: ibrutinib -0.015 | ralimetinib 0.003 | [2] -0.027 | [3] -0.089 | [4] 0.009 | [5] -0.024 | [6] -0.066 | [7] 0.034 | vemurafenib 0.078 | barasertib 0.066 | [10] -0.058 | [11] -0.033 | [12] 0.001 | [13] -0.061 | saracatinib -0.002 | sotrastaurin 0.005

TRPT1 isoform 4 (UniProt Q86TN4)
inactive: ibrutinib 0.269 | [1] -0.047 | ralimetinib -0.01 | [2] 0.072 | [3] 0.078 | [4] 0.133 | [5] 0.035 | [6] 0.004 | [7] -0.056 | [8] -0.064 | vemurafenib -0.102 | [9] 0.128 | barasertib -0.366 | volasertib 0.123 | [11] -0.044 | [12] 0.041 | [13] -0.01 | saracatinib 0.005 | sotrastaurin 0.023

2 successive records already listed, for reference:
TTC39B (UniProt Q5VTQ0)
inactive: ibrutinib 0.092 | [1] 0.095 | ralimetinib 0.066 | [2] -0.046 | [3] 0.039 | [5] -0.038 | [7] 0.041 | [8] 0.022 | vemurafenib 0.114 | [9] 0.027 | barasertib 0.271 | volasertib -0.019 | [11] 0.029 | saracatinib -0.024

TRIM58 (UniProt Q8NG06)
inactive: ibrutinib -0.015 | ralimetinib 0.003 | [2] -0.027 | [3] -0.089 | [4] 0.009 | [5] -0.024 | [6] -0.066 | [7] 0.034 | vemurafenib 0.078 | barasertib 0.066 | [10] -0.058 | [11] -0.033 | [12] 0.001 | [13] -0.061 | saracatinib -0.002 | sotrastaurin 0.005

Next part.

TTC21B (UniProt Q7Z4L5)
inactive: ibrutinib -0.075 | [3] -0.063 | [4] 0.035 | [5] -0.341 | vemurafenib -0.056 | barasertib -0.043 | [10] 0.031 | [12] 0.034 | [13] -0.109 | saracatinib 0.159

TRAF3IP1 (UniProt Q8TDR0)
inactive: ibrutinib -0.022 | [1] -0.037 | ralimetinib 0.05 | [2] 0.044 | [3] -0.01 | [5] -0.008 | [6] -0.036 | [7] -0.029 | [8] 0.032 | vemurafenib -0.008 | [9] -0.03 | barasertib 0.007 | [10] 0.035 | volasertib -0.147 | [11] -0.165 | saracatinib -0.088 | sotrastaurin 0.059

TRAPPC2L (UniProt H3BQQ8)
inactive: ibrutinib -0.171 | barasertib 0.176

TSTD2 (UniProt Q5T7W7)
inactive: ibrutinib -0.052 | [1] -0.027 | ralimetinib 0.039 | [2] -0.06 | [3] 0.082 | [4] 0.019 | [5] 0.059 | [7] 0.075 | [8] 0.123 | vemurafenib -0.257 | [9] -0.029 | barasertib 0.164 | volasertib -0.046 | [11] -0.068 | [12] 0.054 | [13] -0.009 | saracatinib -0.048

TRIM67 (UniProt Q6ZTA4)
inactive: [1] 0.051 | ralimetinib 0.164 | [2] 0.019 | [3] -0.018 | [7] 0.061 | [8] -0.061 | [9] -0.089 | [10] -0.076 | volasertib 0.001 | [11] 0.047
